From patent publication CN114605540A
No constants are given. Whether binding was seen depends on the method and setting. Some binding calls cover weakened binding; strength is not graded here.

Amino acid sequences for entries named in this document (tags omitted). Residues count along the entry.
UniProt P10747, residues 19-152: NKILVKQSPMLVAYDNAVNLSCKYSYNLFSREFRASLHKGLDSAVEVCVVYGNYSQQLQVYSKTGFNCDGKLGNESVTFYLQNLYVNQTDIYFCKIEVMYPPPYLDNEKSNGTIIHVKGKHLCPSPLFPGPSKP

Biological target: CD28 ECD蛋白 (UniProt P10747)
Assay: monoclonal phage ELISA on coated CD28, two rounds of verification

B1: P1-10B (VHH)
VHH: AVQLVESGGGLVQAGGSLRLSCAASGRTFRAYAMGWFRQAPGKEREFVAAISWSGGSTYYADSVKGRFTISRDNAKNTVYLQMNSLKPEDTAVYYCAASPFFDSSWYDGWAPGGAGRGEYDYWGQGTQVTVSS
- binding: binds

B2: P2-5C (VHH)
VHH: AVQLVESGGGLVQAGDSLRLSCAASWGTLSSYYMGWFRQAPGAEREWVGGISRRGDSIFYGDSVKGRTTISRDNAKNTVYLQMNSLKPEDTAVYYCAAASERLVARLSWEYDYWGQGTQVTVSS
- binding: binds

B3: P2-7F (VHH)
VHH: AVQLVESGGGLVQSGGSLRLSCAASRSIFRIEVMGWYRQAPGKQRELVAGITSGGLTNYAGSVKGRFTISRDNAENTVYLQMDSLKPEDTAVYYCNAQTRRLGGLPGGSWGQGTQVTVSS
- binding: binds

B4: P1-1C (VHH)
VHH: AVQLVESGGGLVQAGGSLRLSCAASGLTFSHYAMGWFRQAPGKEREFVAAISWSGGSTYYADSVKGRFTISRDNAKNTVFLQMNSLKPEDTAVYYCAAGVLYIGDYPGSYQYDYWGQGTQVTVSS
- binding: binds

B5: P1-2F (VHH)
VHH: AVQLVESGGGLVRAGGSLRLSCAASGLTFSHYAMGWFRQAPGKEREFVAAISWSGGSTYYADSVKGRFTISRDNAKNTVFLQMNSLKPEDTAVYYCAAGVLYIGDYPGSYQYDYWGQGTQVTVSS
- binding: binds

B6: P1-5A (VHH)
VHH: AVQLVESGGGLVQAGGSLRLSCAASGLTFSHYAMGWFRQAPGKEREFVAAISWSGGSTYYADSVKGRFTISRDNPKNTVFLQMNSLKPEDTAVYYCAAGVLYIGDYPGSYQYDYWGQGTQVTVSS
- binding: binds

B7: P1-7F (VHH)
VHH: AVQLVESGGGLVQAGGSLRLSCAASGLTFGHYAMGWFRQAPGKEREFVAAISWSGGSTYYADSVKGRFTISRDNAKNTVFLQMNSLKPEDTAVYYCAAGVLYIGDYPGSYQYDYWGQGTQVTVSS
- binding: binds
